Laboratory results reported in PubChem BioAssay AID276 (DTP/NCI, 2004).
The list does not hold the whole screen: it is rich in T/C values a quarter to a half above the control, in often repeated tests (any T/C) and in doses without a T/C. Further doses and runs are listed elsewhere. T/C is the treated group as % of the vehicle group. Some doses have a count of surviving animals in place of a T/C: the source holds a T/C of zero for them, seemingly a mark for toxic or unscored doses. Some doses without a T/C left all or most animals alive at the check, yet need not have been tolerated: survival well below the control is almost never listed, so the zero probably covers shortened survival too. Survivors were counted at the toxicity check, usually on the fifth day, unless a day is given; later deaths do not show. Schedule codes are those of the source, read here as Q, the interval in days (D) or hours (H), X, the number of doses. Some doses were run more than once; the results are listed from low to high. Where survival is the endpoint, this PubChem deposit counts one and a half times the control or more as active, and values a quarter to a half above the control carry no call in these data; other NCI protocols may use other cut-offs.

System: B6C3F1 mice, Lewis lung carcinoma iv, survival T/C
Assay: NCI In Vivo Anticancer Drug Screen. Data for tumor model Lewis Lung Carcinoma (intravenous) in B6C3F1 mice
Settings: T/C endpoint: median survival time, higher T/C = longer survival
Method: The antitumor activity of compounds was measured in mice bearing transplantable tumors. Survival or tumor size were measured and the results are expressed as the measurement made in the treated group (T) divided by the measurement made in the vehicle treated control group (C). The tumor model used in this assay is Lewis Lung Carcinoma (intravenous) in B6C3F1 mice

[1] = dose: 2.0 mg/kg/injection, schedule: Q01DX009 (ip), vehicle: saline
[2] = dose: 200.0 mg/kg/injection, schedule: Q01DX009 (ip), vehicle: Klucel (hydroxypropylcellulose) (HPC)
[3] = dose: 400.0 mg/kg/injection, schedule: Q01DX009 (ip), vehicle: saline with Tween-80
[4] = dose: 200.0 mg/kg/injection, schedule: Q01DX009 (ip), vehicle: saline with Tween-80
[5] = dose: 25.0 mg/kg/injection, schedule: Q01DX009 (ip), vehicle: saline with Tween-80
[6] = dose: 50.0 mg/kg/injection, schedule: Q01DX009 (ip), vehicle: saline with Tween-80
[7] = dose: 100.0 mg/kg/injection, schedule: Q01DX009 (ip), vehicle: saline with Tween-80
[8] = dose: 400.0 mg/kg/injection, schedule: Q01DX009 (ip), vehicle: saline
[9] = dose: 25.0 mg/kg/injection, schedule: Q01DX009 (ip), vehicle: saline

In the case of `CC(C)=CC(=O)OC1C2C(C)=CC(=O)C(O)C2(C)C2C3(O)OCC24C(CC(=O)OC14)C(C)C3O` (centres undefined), the survivor count (dose: 4.0 mg/kg/injection, schedule: Q01DX009 (ip), vehicle: distilled water + Tween-80) was 4 of 10.

In the case of `CNC(=O)O/N=C(\CN=[N+]=[N-])C(C)(C)C`, the survivor count [1] was 0 of 10.

In the case of `C=C(C)/C([O-])=N/[N+](C)(C)CC(O)CCCCCCCCCCCC` (centres undefined), the survivor count (dose: 400.0 mg/kg/injection, schedule: Q01DX001 (ip), vehicle: saline) was 2 of 10 and the survivor count (dose: 800.0 mg/kg/injection, schedule: Q01DX001 (ip), vehicle: saline) was 0 of 10.

`CCCCCn1c(C)cc(/C=C\c2ccc3cc(C)ccc3[n+]2C)c1C` was tested, and the survivor count (dose: 600.0 micrograms/kg/injection, schedule: Q01DX009 (ip), vehicle: Klucel (hydroxypropylcellulose) (HPC)) was 5 of 10 and the survivor count (dose: 1200.0 micrograms/kg/injection, schedule: Q01DX009 (ip), vehicle: Klucel (hydroxypropylcellulose) (HPC)) was 0 of 10.

With `CC[C@@]1(O)C(=O)OCc2c1cc1n(c2=O)Cc2cc3ccccc3nc2-1` the T/C (dose: 3.0 mg/kg/injection, schedule: Q01DX009 (ip), vehicle: saline with Tween-80) was 132 % of control.

With `COc1cc(C2c3cc4c(cc3C(O)C(CO)C2CO)OCO4)cc(OC)c1OC` (centres undefined) the survivor count [2] was 10 of 10 and the survivor count (dose: 400.0 mg/kg/injection, schedule: Q01DX009 (ip), vehicle: Klucel (hydroxypropylcellulose) (HPC)) was 1 of 10.

`COc1ccc(OC)c(Cc2cnc3nc(N)nc(N)c3c2C)c1` was tested, and the survivor count (dose: 100.0 mg/kg/injection, schedule: Q01DX009 (ip), vehicle: water) was 5 of 10.

For `O=C1CN(CCN2CC(=O)N(CN3CCOCC3)C(=O)C2)CC(=O)N1CN1CCOCC1`, the T/C (dose: 25.0 mg/kg/injection, schedule: Q01DX009 (ip), vehicle: water) was 131 % of control, the T/C (dose: 50.0 mg/kg/injection, schedule: Q01DX009 (ip), vehicle: water) was 130 % of control and the survivor count (dose: 200.0 mg/kg/injection, schedule: Q01DX009 (ip), vehicle: water) was 7 of 10. For the same molecule, the survivor count (dose: 400.0 mg/kg/injection, schedule: Q01DX009 (ip), vehicle: water) was 0 of 10.

With `N=c1c(C(=O)OCc2ccccc2)ncc(CCl)n1O` the survivor count [3] was 4 of 10.

`CC1OC(OC2CC(O)(C(=O)CO)Cc3c(O)c4c(c(O)c32)C(=O)c2ccccc2C4=O)CC(N)C1O` (centres undefined) was tested, and the T/C (dose: 0.5 mg/kg/injection, schedule: Q01DX009 (ip), vehicle: other) was 134 % of control, the survivor count (dose: 1.0 mg/kg/injection, schedule: Q01DX009 (ip), vehicle: other) was 10 of 10 and the T/C (dose: 1.0 mg/kg/injection, schedule: Q01DX009 (ip), vehicle: saline) was 131 % of control. The survivor count (dose: 2.0 mg/kg/injection, schedule: Q01DX009 (ip), vehicle: other) was 10 of 10, the survivor count [1] was 10 of 10 and the survivor count (dose: 2.0 mg/kg/injection, schedule: Q01DX009 (ip), vehicle: water) was 10 of 10.

In the case of `Cc1ccoc1`, the survivor count (dose: 133.3 mg/kg/injection, schedule: Q03HX027 (ip), vehicle: saline with Tween-80) was 9 of 10.

With `C/C=C/C=C1/OC(C)=C(C(C)=O)C1=O` the survivor count [4] was 8 of 10 and the survivor count [3] was 7 of 10.

`NC(=O)c1ccc[n+](Cc2c(Cl)cccc2Cl)c1` was tested, and the survivor count (dose: 80.0 mg/kg/injection, schedule: Q01DX009 (ip), vehicle: saline) was 4 of 9.

`NC(=O)/C=C/C(=O)c1c(Cl)cccc1Cl` was tested, and the survivor count [5] was 3 of 10.

For `O=NN(CCCl)C(=O)Oc1cc(Cl)c(Cl)cc1Cl`, the survivor count (dose: 92.5 mg/kg/injection, schedule: Q01DX009 (ip), vehicle: Klucel (hydroxypropylcellulose) (HPC)) was 10 of 10 and the survivor count (dose: 185.0 mg/kg/injection, schedule: Q01DX009 (ip), vehicle: Klucel (hydroxypropylcellulose) (HPC)) was 2 of 10.

In the case of `c1ccc2c(c1)-c1ccccc1C1NC21` (centres undefined), the survivor count [5] was 10 of 10, the survivor count [6] was 7 of 10 and the survivor count [7] was 0 of 10.

In the case of `C=C1C(=O)OC2/C=C(\C)CC(O)/C=C(/CO)CC(OC(=O)/C(C)=C/C)C12` (centres undefined), the survivor count (dose: 60.0 mg/kg/injection, schedule: Q01DX009 (ip), vehicle: saline with Tween-80) was 10 of 10 and the survivor count (dose: 120.0 mg/kg/injection, schedule: Q01DX009 (ip), vehicle: saline with Tween-80) was 4 of 10.

In the case of `O=C(O)[C@H](Cc1ccccc1)N1C(=O)c2ccccc2C1=O`, the survivor count (dose: 50.0 mg/kg/injection, schedule: Q01DX009 (ip), vehicle: DMSO) was 5 of 8, the survivor count (dose: 100.0 mg/kg/injection, schedule: Q01DX009 (ip), vehicle: DMSO) was 5 of 10 and the survivor count (dose: 200.0 mg/kg/injection, schedule: Q01DX009 (ip), vehicle: DMSO) was 1 of 10. The survivor count (dose: 400.0 mg/kg/injection, schedule: Q01DX009 (ip), vehicle: DMSO) was 0 of 10 and the survivor count (dose: 800.0 mg/kg/injection, schedule: Q01DX009 (ip), vehicle: DMSO) was 0 of 10.

With `CCN1/C(=C/C=C/C=C\C=C\c2sc3ccc4ccccc4c3[n+]2CC)Sc2ccc3ccccc3c21` the survivor count (dose: 5.0 mg/kg/injection, schedule: Q01DX009 (ip), vehicle: saline with Tween-80) was 10 of 10, the survivor count (dose: 10.0 mg/kg/injection, schedule: Q01DX009 (ip), vehicle: saline with Tween-80) was 10 of 10 and the survivor count (dose: 20.0 mg/kg/injection, schedule: Q01DX009 (ip), vehicle: saline with Tween-80) was 8 of 10. The survivor count (dose: 40.0 mg/kg/injection, schedule: Q01DX009 (ip), vehicle: saline with Tween-80) was 8 of 10 and 10 of 10.

With `COc1cc2cc3cc4cc(OC)c(OC)cc4c(C)[n+]3cc2cc1OC` (tested in a mixture with another compound) the survivor count (dose: 200.0 mg/kg/injection, schedule: Q01DX009 (ip), vehicle: saline) was 10 of 10 and the survivor count [8] was 4 of 10.

In the case of `CC(C)NC(=O)N(CCCCBr)N=O`, the survivor count (dose: 100.0 mg/kg/injection, schedule: Q01DX009 (ip), vehicle: Klucel (hydroxypropylcellulose) (HPC)) was 10 of 10 and the survivor count [2] was 10 of 10.

In the case of `COc1cccc2c1C(=O)c1c(O)c3c(c(O)c1C2=O)CC(O)(C(=O)CO)CC3OC1CC(N)C(O)C(C)O1` (centres undefined), the T/C (dose: 12.5 mg/kg/injection, schedule: Q01DX009 (ip), vehicle: saline) was 130 % of control, the survivor count (dose: 30.0 mg/kg/injection, schedule: Q01DX009 (ip), vehicle: water) was 10 of 10 and the T/C (dose: 36.0 mg/kg/injection, schedule: Q01DX009 (ip), vehicle: water) was 128 % of control. The survivor count (dose: 72.0 mg/kg/injection, schedule: Q01DX009 (ip), vehicle: water) was 10 of 10 and the survivor count (dose: 144.0 mg/kg/injection, schedule: Q01DX009 (ip), vehicle: water) was 10 of 10.

For `CN(C)CCC(=O)C(=Cc1ccc(O)cc1)C(=O)CCN(C)C`, the survivor count [8] was 0 of 6.

`Cc1c(N)nc(C(CC(N)=O)NCC(N)C(N)=O)nc1C(=O)NC(C(=O)NC(C)C(O)C(C)C(=O)NC(C(=O)NCCc1nc(-c2nc(C(=O)NCCCNCCCc3ccccn3)cs2)cs1)C(C)O)C(OC1OC(CO)C(O)C(O)C1OC1OC(CO)C(O)C(OC(N)=O)C1O)c1cnc[nH]1` (centres undefined) was tested, and the T/C (dose: 16.0 mg/kg/injection, schedule: Q01DX009 (ip), vehicle: saline) was 137 % of control, the T/C (dose: 25.0 mg/kg/injection, schedule: Q01DX009 (ip), vehicle: saline + alcohol) was 133 % of control and the T/C [9] was 144 % of control. The survivor count (dose: 50.0 mg/kg/injection, schedule: Q01DX009 (ip), vehicle: saline + alcohol) was 10 of 10.

In the case of `CC(=O)O[C@@]1(C)[C@@H](C)C(=O)O[C@@H]2CCN3CC=C(COC(=O)[C@]1(C)O)[C@H]23`, the T/C [5] was 138 % of control, the T/C [6] was 146 % of control and the T/C [7] was 140 % of control. The survivor count [4] was 8 of 10.

In the case of `CCCCCCOC(CN(C)C)C(Cl)(Cl)Cl` (centres undefined), the survivor count [3] was 5 of 10.

For `COc1cc(Cl)ccc1C`, the survivor count [3] was 3 of 10.

In the case of `COc1ccc2ccccc2c1C1NC(=O)c2ccccc2N1` (centres undefined), the T/C (dose: 50.0 mg/kg/injection, schedule: Q01DX009 (ip), vehicle: Klucel (hydroxypropylcellulose) (HPC)) was 128 % of control.

With `CC1=C(O)C(=O)[C@@H]2O[C@@H]2C1=O` the survivor count [9] was 3 of 10 and 5 of 10.
